According to PMC4029751:
Results are given in words; binding and its absence hold for the method and conditions named. Binding seen in cells or lysates may run through a third protein. Binding can be weak; no strength is given.

Protein sequences, listed by entry. Tags and fused reporters are not part of them. Lines headed by an entry give the natural chain unless they say otherwise; changes in a name come on top.
UniProt S0BEC9: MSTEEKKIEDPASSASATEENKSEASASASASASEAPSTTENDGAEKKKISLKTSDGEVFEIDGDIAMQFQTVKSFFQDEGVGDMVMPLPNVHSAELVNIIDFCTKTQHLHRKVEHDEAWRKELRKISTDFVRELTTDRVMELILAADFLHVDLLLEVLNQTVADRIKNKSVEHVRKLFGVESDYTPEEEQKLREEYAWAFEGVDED

How the values were obtained:
[1] = target: GST-fused MdSBP1 (Malus × domestica (apple)) (UniProt U6C5A1); test: pull-down; GST fusions (crude proteins from E. coli) on Glutathione Sepharose 4B; incubated with wheat-germ translation products of FLAG-tagged MdCUL1s at 4°C for 2 hours; eluted with 2 × SDS loading buffer; anti-FLAG blot; only the target purified
[2] = target: GST-fused MdSSK1 (Malus × domestica (apple)) (UniProt S0BEC9); test: as above

| Substance | binding [1] | binding [2] |
| --- | --- | --- |
| FLAG-tagged MdCUL1A (from UniProt A0A060PJX1) | binds | binds |
| FLAG-tagged MdCUL1B (from UniProt A0A060PMD9) | binds | no binding |
